The other results are listed elsewhere or left out. Repeats are few or missing, and single values can be far off.
Legend:
[1] = test system: MEPP (mouse ovarian epithelium Trp53/Pten KO); test: cell viability relative to untreated (fraction); higher = less growth inhibition; settings: 5 µM; 3 days
[2] = test system: PREPP (mouse prostate epithelium Trp53/Pten KO); test: as above; settings: 5 µM; 3 days

Structure (SMILES)	cell viability [1]	cell viability [2]
O=c1[nH]c2ccccc2o1	1.03	1.03
CN(C)CCc1ccc(O)cc1	1.26	0.953
O=C(O)Cc1cnc[nH]1	0.824	0.973
COC[C@]12CN(C)C3[C@@H]4[C@H](OC)[C@H]1[C@@]3([C@@H](OC)C[C@H]2O)[C@@H]1C[C@@]2(O)[C@H](OC(=O)c3ccccc3)[C@@H]1[C@]4(O)[C@@H](O)[C@@H]2OC	0.85	0.83
c1cc2c(cc1[C@H]1OC[C@H]3[C@@H]1CO[C@@H]3c1ccc3c(c1)OCO3)OCO2	1.72	0.946
C=C[C@H]1[C@H](O[C@@H]2O[C@H](CO)[C@@H](O)[C@H](O)[C@H]2O)OC=C2C(=O)OCC[C@H]21	1.29	1
O=[N+]([O-])c1ncc[nH]1	0.787	0.867
C#C[C@]1(O)CC[C@H]2[C@@H]3CCC4=CC(=O)CC[C@]4(C)[C@H]3CC[C@@]21C	0.95	0.907
CC[C@H]1CN2CC[C@H]1C[C@H]2[C@H](O)c1ccnc2ccc(OC)cc12	1.13	1.09
Oc1ccccc1-c1ccccc1	0.93	0.971
COc1ccc(C(=O)O)cc1OC	0.844	1.01
CN[C@H]1[C@H](O)[C@H](O[C@@H]2[C@@H](O)[C@H](O[C@H]3O[C@H](C(C)O)[C@@H](O)[C@H](O)[C@H]3N)[C@@H](N)C[C@H]2N)OC[C@@]1(C)O (stereo partly specified)	1.25	0.885
CC(=O)O[C@@]12CO[C@@H]1C[C@@H](O)[C@@]1(C)C(=O)[C@H](O)C3=C(C)[C@@H](O)C[C@@](O)([C@@H](OC(=O)c4ccccc4)[C@H]21)C3(C)C	0.92	0.93

Pulled by compound from above (two):
Structure (SMILES)	cell viability [1]	cell viability [2]
COc1ccc(C(=O)O)cc1OC	0.844	1.01
CC(=O)O[C@@]12CO[C@@H]1C[C@@H](O)[C@@]1(C)C(=O)[C@H](O)C3=C(C)[C@@H](O)C[C@@](O)([C@@H](OC(=O)c4ccccc4)[C@H]21)C3(C)C	0.92	0.93

— the supplement of paper PMC12873370
